{"source": "patent US7138489", "about": "(dated 2006)", "key": {"[1]": {"experiment": "general procedure: hybrid (solid and solution phase) peptide synthesis; prolyl-2-chlorotrityl resin; HBTU; HOOBt/DCC; HBTU/DIPEA for fragment condensation", "conditions": "whole synthesis"}, "[2]": {"experiment": "general procedure: hybrid (solid and solution phase) peptide synthesis; prolyl-2-chlorotrityl resin (Novabiochem); HBTU; HOOBt/DCC; HBTU/DIPEA for fragment condensation", "conditions": "whole synthesis; for crude HPLC purity / crude yield: scale of the general procedure 1.0 mmol, 0.25 mmol"}, "[3]": {"experiment": "peptide synthesis"}}}
{"substance": "Boc-Gly-Ser(tBu)-Ser(Octanoyl)-Phe-Leu-Ser(tBu)-Pro-OH", "values": [{"measurement": "crude mass", "setting": "[1]; scale 0.25 mmol", "result": 248, "unit": "mg"}, {"measurement": "crude yield", "setting": "[1]; scale 1.0 mmol", "result": "yield 72%"}, {"measurement": "crude mass", "setting": "[1]; scale 1.0 mmol, run 1", "result": 742, "unit": "mg"}, {"measurement": "crude mass", "setting": "[1]; scale 1.0 mmol, run 2", "result": 715, "unit": "mg"}, {"measurement": "isolated mass", "setting": "[2]", "result": 210, "unit": "mg"}, {"measurement": "crude HPLC purity", "setting": "[2]; run 1", "result": 94, "unit": "%"}, {"measurement": "crude HPLC purity", "setting": "[2]; run 2", "result": 74, "unit": "%"}, {"measurement": "crude yield", "setting": "[2]; run 1", "result": "yield 69%"}, {"measurement": "crude yield", "setting": "[2]; run 2", "result": "yield 96%"}]}
{"substance": "Boc-Gly-Ser(tBu)-Ser-Phe-Leu-Ser(tBu)-Pro-OH", "values": [{"measurement": "crude mass", "setting": "[1]; scale 0.25 mmol", "result": 165, "unit": "mg"}]}
{"substance": "GSS (n-octanoyl) FLSPEHQRVQQRKESKKPPAKLQPR (Ser3 n-octanoyl; N-terminal GSS)", "values": [{"measurement": "final HPLC purity", "setting": "[3]; coupling step", "result": 98, "unit": "%"}, {"measurement": "crude HPLC purity", "setting": "[3]; coupling step, run 1", "result": 80, "unit": "%"}, {"measurement": "crude HPLC purity", "setting": "[3]; coupling step, run 2", "result": 83, "unit": "%"}, {"measurement": "step yield", "setting": "[3]; purification step", "result": "recovery rate 73%"}]}
